These are yes or no findings as the source states them, for the method shown. Binding seen in cells or lysates may run through a third protein. These calls come from enrichment with a bait or labelling near it, and not all partners need be listed.
The substances below were run against T1, BRPF1 bromodomain N651AzF (UniProt P55201) (assay: cross-linking + affinity purification with mass spectrometry; ~1 mg lysate of trichostatin A treated HEK293T cells with 50 μM BRPF1-N651AzF; 365 nm UV; Ni-NTA pull-down, washes with 400 mM KCl and Triton X-100; in-solution trypsin digestion, LC-MS/MS; +UV against -UV; only the target purified).
T1 sequence (chain, 4-azido-L-phenylalanine (AzF) at 651): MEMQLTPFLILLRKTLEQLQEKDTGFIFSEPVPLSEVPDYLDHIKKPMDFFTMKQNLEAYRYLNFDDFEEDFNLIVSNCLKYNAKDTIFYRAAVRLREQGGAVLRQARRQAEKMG

Protein sequences, listed by entry. Tags and fused reporters are not part of them. Residues count along the entry.
UniProt P33316, residues 70-252: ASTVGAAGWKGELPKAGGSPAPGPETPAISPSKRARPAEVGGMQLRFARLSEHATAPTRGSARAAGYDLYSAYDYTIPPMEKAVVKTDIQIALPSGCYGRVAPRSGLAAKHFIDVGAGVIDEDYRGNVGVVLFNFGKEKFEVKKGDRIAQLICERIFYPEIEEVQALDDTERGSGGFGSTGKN
UniProt O14545: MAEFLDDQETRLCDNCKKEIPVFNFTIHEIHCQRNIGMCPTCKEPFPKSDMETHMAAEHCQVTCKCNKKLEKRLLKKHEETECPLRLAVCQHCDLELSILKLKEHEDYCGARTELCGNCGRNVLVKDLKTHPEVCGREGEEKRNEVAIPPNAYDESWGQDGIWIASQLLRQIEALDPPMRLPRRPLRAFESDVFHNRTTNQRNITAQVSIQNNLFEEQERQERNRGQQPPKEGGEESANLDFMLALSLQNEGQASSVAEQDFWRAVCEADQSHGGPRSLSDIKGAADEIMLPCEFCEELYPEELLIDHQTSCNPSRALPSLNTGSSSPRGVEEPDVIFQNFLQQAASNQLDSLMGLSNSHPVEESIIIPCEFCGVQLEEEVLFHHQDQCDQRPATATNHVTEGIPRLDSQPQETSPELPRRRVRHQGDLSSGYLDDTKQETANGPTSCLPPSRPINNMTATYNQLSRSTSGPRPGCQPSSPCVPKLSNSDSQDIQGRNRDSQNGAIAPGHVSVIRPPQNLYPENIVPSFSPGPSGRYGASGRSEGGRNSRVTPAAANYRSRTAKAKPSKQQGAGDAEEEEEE
UniProt Q52LJ0: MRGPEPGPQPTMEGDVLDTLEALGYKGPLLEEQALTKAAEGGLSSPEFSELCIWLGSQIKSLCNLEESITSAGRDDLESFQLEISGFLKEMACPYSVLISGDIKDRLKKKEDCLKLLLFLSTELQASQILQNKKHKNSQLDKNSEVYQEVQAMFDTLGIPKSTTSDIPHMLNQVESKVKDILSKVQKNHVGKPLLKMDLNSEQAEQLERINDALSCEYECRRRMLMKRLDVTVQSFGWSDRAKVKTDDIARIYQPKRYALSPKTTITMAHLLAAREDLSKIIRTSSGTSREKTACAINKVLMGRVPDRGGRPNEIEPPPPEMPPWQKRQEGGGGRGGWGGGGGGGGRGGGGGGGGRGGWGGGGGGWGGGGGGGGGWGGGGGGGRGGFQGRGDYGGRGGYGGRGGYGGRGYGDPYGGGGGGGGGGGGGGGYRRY
UniProt Q15370: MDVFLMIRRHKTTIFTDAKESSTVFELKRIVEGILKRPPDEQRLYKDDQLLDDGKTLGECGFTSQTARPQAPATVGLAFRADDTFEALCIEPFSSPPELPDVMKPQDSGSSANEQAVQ
UniProt P27816: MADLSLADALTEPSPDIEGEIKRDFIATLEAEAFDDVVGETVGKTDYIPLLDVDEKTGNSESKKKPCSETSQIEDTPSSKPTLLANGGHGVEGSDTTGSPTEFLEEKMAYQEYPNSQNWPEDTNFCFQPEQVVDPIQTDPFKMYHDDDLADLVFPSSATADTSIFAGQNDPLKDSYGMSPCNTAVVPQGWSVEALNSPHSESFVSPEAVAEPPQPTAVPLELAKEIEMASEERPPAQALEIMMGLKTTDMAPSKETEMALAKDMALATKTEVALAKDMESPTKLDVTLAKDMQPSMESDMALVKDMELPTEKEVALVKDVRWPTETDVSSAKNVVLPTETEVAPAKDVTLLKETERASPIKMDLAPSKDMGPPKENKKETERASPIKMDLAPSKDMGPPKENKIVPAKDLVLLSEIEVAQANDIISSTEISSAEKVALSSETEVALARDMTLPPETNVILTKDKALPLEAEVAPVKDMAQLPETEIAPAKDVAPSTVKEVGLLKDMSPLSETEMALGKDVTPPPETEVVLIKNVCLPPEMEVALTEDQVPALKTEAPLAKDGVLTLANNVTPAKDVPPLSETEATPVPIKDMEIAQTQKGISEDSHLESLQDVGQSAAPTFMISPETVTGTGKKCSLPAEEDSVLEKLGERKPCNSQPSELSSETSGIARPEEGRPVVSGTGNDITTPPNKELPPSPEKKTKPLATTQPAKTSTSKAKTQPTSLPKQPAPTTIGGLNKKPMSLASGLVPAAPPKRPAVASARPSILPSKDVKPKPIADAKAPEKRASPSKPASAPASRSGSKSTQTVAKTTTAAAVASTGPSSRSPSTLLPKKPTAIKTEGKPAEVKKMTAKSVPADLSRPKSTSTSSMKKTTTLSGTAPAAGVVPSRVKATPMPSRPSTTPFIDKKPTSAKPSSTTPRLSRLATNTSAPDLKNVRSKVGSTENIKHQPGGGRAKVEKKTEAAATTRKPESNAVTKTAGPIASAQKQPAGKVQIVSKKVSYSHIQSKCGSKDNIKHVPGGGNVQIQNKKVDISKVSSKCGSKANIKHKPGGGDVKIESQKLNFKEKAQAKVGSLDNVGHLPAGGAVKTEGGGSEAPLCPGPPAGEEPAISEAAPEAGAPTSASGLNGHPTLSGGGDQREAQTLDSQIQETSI
UniProt O14929: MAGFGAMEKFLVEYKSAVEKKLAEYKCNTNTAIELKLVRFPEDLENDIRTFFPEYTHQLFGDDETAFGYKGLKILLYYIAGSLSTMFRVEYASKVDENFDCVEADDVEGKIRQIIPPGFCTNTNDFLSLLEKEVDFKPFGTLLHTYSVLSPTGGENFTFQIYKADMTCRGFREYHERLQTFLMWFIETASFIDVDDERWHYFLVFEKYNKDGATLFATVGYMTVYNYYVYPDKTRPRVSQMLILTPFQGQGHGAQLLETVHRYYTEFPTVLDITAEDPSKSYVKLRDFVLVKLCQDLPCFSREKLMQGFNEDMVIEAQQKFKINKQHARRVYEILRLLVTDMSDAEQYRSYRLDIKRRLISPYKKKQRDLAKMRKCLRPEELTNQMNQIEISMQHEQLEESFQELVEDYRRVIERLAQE
UniProt P60660: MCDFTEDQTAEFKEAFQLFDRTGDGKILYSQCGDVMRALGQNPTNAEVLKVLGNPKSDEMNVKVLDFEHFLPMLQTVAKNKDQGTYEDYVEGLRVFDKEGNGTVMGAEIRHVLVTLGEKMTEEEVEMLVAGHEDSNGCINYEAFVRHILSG
UniProt O75821: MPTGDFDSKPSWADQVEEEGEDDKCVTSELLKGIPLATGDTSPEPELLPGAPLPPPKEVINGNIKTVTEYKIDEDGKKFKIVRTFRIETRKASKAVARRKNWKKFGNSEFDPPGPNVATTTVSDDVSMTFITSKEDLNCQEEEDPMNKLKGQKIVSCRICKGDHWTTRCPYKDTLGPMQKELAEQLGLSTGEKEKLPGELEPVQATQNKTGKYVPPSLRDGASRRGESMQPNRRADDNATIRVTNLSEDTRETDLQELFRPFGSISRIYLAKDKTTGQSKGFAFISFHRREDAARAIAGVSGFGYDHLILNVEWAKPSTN

| binding | Substance |
| --- | --- |
| binds | TXLN4 (human (endogenous in HEK293T)) |
| binds | DUT (from UniProt P33316 70-252) |
| binds | TRAFD1 (from UniProt O14545 1-582) |
| binds | FAM98B (from UniProt Q52LJ0 1-433) |
| binds | TCEB2 (from UniProt Q15370 1-118) |

Second part, the substance before the results:

| Substance | binding |
| --- | --- |
| MAP4 (from UniProt P27816 1-1152) | binds |
| HAT1 (from UniProt O14929 1-419) (enzyme) | binds |
| MYL6 (from UniProt P60660 1-151) | binds |
| EIF3G (from UniProt O75821 1-320) | binds |
